The structures given here were assigned with low confidence; some may be wrong.
The molecules below were run against Recombinant human LSD1 (Homo sapiens, UniProt O60341) (assay: LSD1 inhibition assay (HTRF LSD1 Histone H3K4 mono-demethylation assay, me1->me0)). Conditions: read-out: LSD1 inhibition IC50 (nM range), 20 nM recombinant human LSD1, 95 nM H3K4(me1) biotinylated peptide, 15 min preincubation, 60 min at 25° C.
Type: biochemical
Procedure: LSD1 biochemical activity was measured using the HTRF® LSD1 Histone H3K4 mono-demethylation assay (me1->me0). Briefly, the enzymatic buffer was prepared by addition of 50 mM Tris-HCl (Sigma cat #T2663-IL), 50 mM NaCl (ThermoFisher cat #AM9759) and 0.01% Tween 20 (ThermoFisher cat #J20605.AP) in distilled water (final pH 8.5). This buffer was supplemented with 10 μM FAD (Fisher Scientific cat #11411838) and 1 mM DTT (Sigma cat #D0632). For the assay, H3K4(me1) biotinylated peptide substrate (Anaspec, cat #64355) was added to provide a final assay concentration of 95 nM. The streptavidin-XL665 (Cisbio cat #610SAXLA) and H3K4 me0-Eu(K) antibody-cryptate (Cisbio, cat #61 KAOKAD) detection reagents were mixed according to the manufacturer's instructions. Test compounds were diluted in DMSO in a series of 10 semi-log step doses; 10 nL of each compound dose were dispensed in 384 well plates. Recombinant human LSD1 was diluted into enzymatic buffer to provide a final assay concentration of 20 nM and added to the tested compounds for 15 minutes. The reaction was started by addition of the substrate and incubated at 25° C. for 60 minutes. The detection reagents were added, and the plate was incubated in the dark for 90 minutes. Fluorescence was measured on an Envision 2103 plate reader with optical setup for […] in the HTRF mode. The ratio of acceptor and donor emission signals was calculated for each well. Percent inhibition values were calculated from the HTRF ratios at different doses and fitted to a 4-parameter logistic curve to determine IC50 values. […]
`N#Cc1ccc(-c2cccc(CN3CCC4(CCN4)C3)c2Cl)cc1F` (stereo not drawn) showed an IC50 of 100 to 1000 nM.
`Cn1cc2cc(-c3ccc(CN4[C@@H]5CC[C@H]4[C@@H](N)C5)cc3-c3ccc(C#N)c(F)c3)ccc2n1` was tested, and the IC50 was 10 to 25 nM.
`N#Cc1ccc(-c2cccc(CC3CNCCO3)c2C2CCCC2)cc1` (stereo not drawn) was tested, and the IC50 was 100 to 1000 nM.

Reference: patent US20260209214A1, “LSD1 MODULATORS” (RECURSION PHARMACEUTICALS, INC., priority 2022, published 2026)
